The target of the test is T1, 20S proteasome β subunit, His-tagged (UniProt P28061).
T1 sequence: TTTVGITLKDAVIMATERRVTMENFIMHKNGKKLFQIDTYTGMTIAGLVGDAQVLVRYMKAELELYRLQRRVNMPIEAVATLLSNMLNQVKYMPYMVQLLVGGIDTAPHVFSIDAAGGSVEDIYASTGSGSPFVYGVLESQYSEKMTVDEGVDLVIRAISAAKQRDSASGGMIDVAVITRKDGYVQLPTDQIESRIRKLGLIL
Put plainly: cryo-EM structure; single-particle cryo-EM and cryo-ET of 0.2 μM 20S proteasome on UFG and rough graphene grids; complex purified by the His tag of the β subunit on a nickel column; both purified.

The chains behind the UniProt entries cited, without tags or fusion partners.
UniProt P25156: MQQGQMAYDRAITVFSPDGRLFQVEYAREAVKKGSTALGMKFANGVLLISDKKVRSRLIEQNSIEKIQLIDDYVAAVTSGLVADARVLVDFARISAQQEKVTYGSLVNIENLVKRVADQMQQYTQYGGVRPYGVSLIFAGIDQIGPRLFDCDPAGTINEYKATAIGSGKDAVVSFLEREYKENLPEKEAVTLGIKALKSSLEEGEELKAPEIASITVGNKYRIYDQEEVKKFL

Experimental findings from PMC9834055 are described below.

Results are given in words; binding and its absence hold for the method and conditions named. Some binding calls cover weakened binding; strength is not graded here. Where a sequence is shown, tags or fusion partners need not be part of it.

Turning to “20S proteasome α subunit (from UniProt P25156 1-233)”, the binding result is recorded as “binds”.
